Here are results for 2 molecules from patent US7029692B1, “Transdermal therapeutic system with nicotine and addition of monoterpene ketones” (LTS Lohmann Therapie-Systeme AG, priority 1999, dated 2006).

The structures appear in SMILES notation.

The data set is described as follows: simplified smelling-test model: odour assessment of 7%-wt. nicotine in miglyol 812 with odour-improving additive. Particulars: 6 subjects, scale 3.0-12.0, higher = more favourable.
Setting [1] is: 0.5%-wt. additive in 7%-wt. nicotine in miglyol 812.
Where [2] appears, read: 1.0%-wt. additive in 7%-wt. nicotine in miglyol 812.
[3] abbreviates: 2.0%-wt. additive in 7%-wt. nicotine in miglyol 812.

`CC(C)[C@@H]1CC[C@@H](C)CC1=O` [(−)-Menthone, (−)-menthone]: the “odour rating, mean value (nicotine smell rating + 2 x overall impression rating)” value runs as follows: under setting [1], 6.6; under setting [2], 6.4; under setting [3], 8.6.

Turning to `CC1CCC(C(C)C)C(O)C1` (single isomer, unassigned; (-)) [(−)-Menthol, (−)-menthol, reference compound], the “odour rating, mean value (nicotine smell rating + 2 x overall impression rating)” value runs as follows: under setting [1], 4.0; under setting [2], 4.1; under setting [3], 4.9.
